Experimental data from PubChem BioAssay (NCATS).
Some of the results follow. These are further read-outs of the screen, such as a control signal, another cell line or another target. No call is given for them. Most of these compounds were active or inconclusive in the main read-out, so they are no random draw. The note in brackets gives the kind of curve behind each potency; many fits are weak.

Test: A High-Content qHTS Against Drug Library for the Identification of Small Molecules that Inhibit DYT1 Early Onset Primary Dystonia-Associated Cell Pathology (AID 1645839)
Details: HEK293 Flp-In EGFP-delE TorsinA, punctate imaging, 48 h; measured here: cell count cytotoxicity
Method in brief: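 In this high-content image screen, delE TorsinA mislocalization in inducible Flp-In 293 cells is scored as %pathology, with cell count serving as the counterscreen. Compound exposure lasts 48 h under tetracycline induction in reduced-serum medium.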
In the case of `Oc1ccc(Cl)cc1Sc1cc(Cl)ccc1O`, the AC50 is reported as 35.5 µM [falling, single point].
With `CCN(CC)CCOc1ccc(C(O)(Cc2ccc(Cl)cc2)c2ccc(C)cc2)cc1` (stereo unspecified) the AC50 was 1.41 µM [falling, full curve].
With `c1ccc(C(O[C@H]2CCCN(CCc3ccc4c(c3)OCO4)C2)c2ccccc2)cc1` the AC50 was 5.01 µM [falling, partial curve].
With `CC(=O)c1ccc2c(c1)N(CCCN(C)C)c1ccccc1S2` the AC50 was 35.5 µM [falling, partial curve, poor fit].
In the case of `COc1cc(C=C2CCC/C(=C\c3ccc(O)c(OC)c3)C2=O)ccc1O`, the AC50 is reported as 1.78 µM [falling, partial curve, poor fit].
With `CCC1C(=O)OCC1Cc1cncn1C` (stereo unspecified) the AC50 was 1.41 µM [rising, full curve, poor fit].
In the case of `C#C[C@]1(O)CC[C@H]2[C@@H]3CCc4cc(OC)ccc4[C@H]3CC[C@@]21C`, the AC50 is reported as 10 µM [falling, partial curve, poor fit].
With `CC(=O)N(CC(O)CO)c1c(I)c(C(=O)NCC(O)CO)c(I)c(C(=O)NCC(O)CO)c1I` (stereo unspecified) the AC50 was 10 µM [falling, partial curve, poor fit].
In the case of `N/C(=N\N=C\c1ccc(Cl)cc1)N/N=C/c1ccc(Cl)cc1`, the AC50 is reported as 14.1 µM [falling, single point].
For `Cc1cccc(C)c1NC(=O)CN(CC(=O)O)CC(=O)O`, the AC50 was 12.6 µM [rising, partial curve, poor fit].
For `Oc1ccc(CCNCCCCCCNCCc2ccccc2)cc1O`, the AC50 was 35.5 µM [falling, partial curve, poor fit].
With `CCCc1ccc(OCC(=O)N2CCN(C(=O)COc3ccc(CCC)cc3OC)CC2)c(OC)c1` the AC50 was 10 µM [falling, partial curve, poor fit].
With `CCOc1ncc(F)c(=O)[nH]1` the AC50 was 14.1 µM [rising, single point].
With `O=C1NCCN1CCN1CCC(c2cn(-c3ccc(F)cc3)c3ccc(Cl)cc23)CC1` the AC50 was 10 µM [falling, partial curve, poor fit].
In the case of `CCCC(=O)O[C@]1(C(=O)CC)CC[C@H]2[C@@H]3CCC4=CC(=O)CC[C@]4(C)[C@H]3[C@@H](O)C[C@@]21C`, the AC50 is reported as 15.8 µM [rising, single point].
In the case of `CN(C)c1cc(NC(=O)CNC(C)(C)C)c(O)c2c1C[C@@H]1C[C@H]3[C@H](N(C)C)C(=O)C(C(N)=O)=C(O)[C@@]3(O)C(=O)C1=C2O`, the AC50 is reported as 35.5 µM [rising, single point].
In the case of `NC1[C@H]2CN(c3nc4c(cc3F)c(=O)c(C(=O)O)cn4-c3ccc(F)cc3F)C[C@@H]12` (stereo partly specified), the AC50 is reported as 10 µM [falling, partial curve].
In the case of `C=CCN1C[C@H](C(=O)N(CCCN(C)C)C(=O)NCC)C[C@@H]2c3cccc4[nH]cc(c34)C[C@H]21`, the AC50 is reported as 28.2 µM [falling, partial curve, poor fit].
In the case of `CCCCCCCCCCCCCCNCCO`, the AC50 is reported as 35.5 µM [falling, single point].
For `CC(=O)CCC(=O)O`, the AC50 was 35.5 µM [falling, single point].
In the case of `CC(=O)[C@H]1CC[C@H]2[C@@H]3C=CC4=CC(=O)CC[C@@]4(C)[C@@H]3CC[C@]12C`, the AC50 is reported as 11.2 µM [falling, single point].
In the case of `CC(CC1c2ccccc2CCc2ccccc21)CN(C)C` (stereo unspecified), the AC50 is reported as 35.5 µM [falling, single point].
With `CN(C)CCOC1=Cc2ccccc2Sc2ccc(Cl)cc21` the AC50 was 31.6 µM [falling, single point].
In the case of `COc1ccc2c(c1)c(CC(=O)OC/C=C(\C)CC/C=C(\C)CCC=C(C)C)c(C)n2C(=O)c1ccc(Cl)cc1`, the AC50 is reported as 3.16 µM [falling, single point].
For `Nc1nc(=O)n([C@@H]2O[C@H](CO)[C@@H](O)[C@@H]2F)cc1I`, the AC50 was 10 µM [rising, single point].
For `CC(C)(C)c1ccc(C(=O)CCCN2CCC(OC(c3ccccc3)c3ccccc3)CC2)cc1`, the AC50 was 3.98 µM [falling, full curve].
In the case of `CO/N=C(/C(=O)N[C@@H]1C(=O)N2C(C(=O)OCOC(=O)C(C)(C)C)=C(C)CS[C@H]12)c1csc(N)n1`, the AC50 is reported as 35.5 µM [rising, single point].
For `CC(=O)Nc1ccc(OCCOCCOc2ccc(NC(C)=O)cc2)cc1`, the AC50 was 10 µM [falling, partial curve, poor fit].
For `CC(N)CCCC(C)(C)O` (stereo unspecified), the AC50 was 2.82 µM [falling, full curve].
In the case of `CC(C)=CCNc1ncnc2c1ncn2[C@@H]1O[C@H](CO)[C@@H](O)[C@H]1O`, the AC50 is reported as 3.16 µM [falling, full curve].
For `O=C(CN1CCN(Cc2ccc3c(c2)OCO3)CC1)N1c2ccccc2Sc2ccccc21`, the AC50 was 8.91 µM [falling, partial curve].
